Source: patent US20080241129A1, “ADIPOCYTE SECRETED PROTEIN CCDC80 IS A POTENT STIMULATOR OF BONE FORMATION” (Wyeth, priority 2007, published 2008)
For some assays here: For at least one compound, name, drawing or mass did not settle the structure. Some entries share one result that the patent states for a list of compounds.

B1: FLAG-purified Ccdc80 protein: C-terminally FLAG-tagged human Ccdc80 purified from conditioned medium using anti-FLAG M2 affinity beads (protein)
chain: EPHPHATIRGSHGGRKVPLVSPDSSRPARFLRHTGRSRGIERSTLEEPNLQPLQRRRSVPVLRLARPTEPPARSDINGAAVRPEQRPAARGSPREMIRDEGSSARSRMLRFPSGSSSPNILASFAGKNRVWVISAPHASEGYYRLMMSLLKDDVYCELAERHIQQIVLFHQAGEEGGKVRRITSEGQILEQPLDPSLIPKLMSFLKLEKGKFGMVLLKKTLQVEERYPYPVRLEAMYEVIDQGPIRRIEKIRQKGFVQKCKASGVEGQVVAEGNDGGGGAGRPSLGSEKKKEDPRRAQVPPTRESRVKVLRKLAATAPALPQPPSTPRATTLPPAPATTVTRSTSRAVTVAARPMTTTAFPTTQRPWTPSPSHRPPTTTEVITARRPSVSENLYPPSRKDQHRERPQTTRRPSKATSLESFTNAPPTTISEPSTRAAGPGRFRDNRMDRREHGHRDPNVVPGPPKPAKEKPPKKKAQDKILSNEYEEKYDLSRPTASQLEDELQVGNVPLKKAKESKKHEKLEKPEKEKKKKMKNENADKLLKSEKQMKKSEKKSKQEKEKSKKKKGGKTEQDGYQKPTNKHFTQSPKKSVADLLGSFEGKRRLLLITAPKAENNMYVQQRDEYLESFCKMATRKISVITIFGPVNNSTMKIDHFQLDNEKPMRVVDDEDLVDQRLISELRKEYGMTYNDFFMVLTDVDLRVKQYYEVPITMKSVFDLIDTFQSRIKDMEKQKKEGIVCKEDKKQSLENFLSRFRWRRRLLVISAPNDEDWAYSQQLSALSGQACNFGLRHITILKLLGVGEEVGGVLELFPINGSSVVEREDVPAHLVKDIRNYFQVSPEYFSMLLVGKDGNVKSWYPSPMWSMVIVYDLIDSMQLRRQEMAIQQSLGMRCPEDEYAGYGYHSYHQGYQDGYQDDYRHHESYHHGYPY
modifications: left off: small tags and cut ends

Legend:
Ccdc80 = settings: shown in copending U.S. application; cited from earlier work
neonatal mouse calvaria = test: Neonatal calvaria organ culture assay (histomorphometry); assay type: cell-based; settings: summary statement
Protocol: Applicants used mouse neonatal calvaria organ culture assay to examine possible roles for Ccdc80 in bone formation/resorption. Neonatal mouse calvaria were prepared from 4-day-old pups as described previously (Traianedes K et al., Endocrinology 139:3178-84 (1998); Mundy G et al., Science 286:1946-49 (1999)). Briefly, calvaria were excised and cut in half along the sagittal suture. Each half calvaria was placed with the concave surface downward on a stainless steel grid (Small Parts, Inc., Miami, Fla.) in a 12-well tissue culture dish (Becton Dickinson, Oxnard, Calif.). Calvaria were pre-incubated overnight in serum-free BGJ medium with 0.1% BSA. Each well contained 1 ml of BGJ medium. After pre-incubation, calvaria were incubated for 7 days in BGJ medium containing 1% FBS without or with test samples. Calvaria in 12-well plates were incubated in a humidified atmosphere of 95% air and 5% CO2. Fresh test samples were added at the time of medium change on day 4.
After organ culture, calvaria were fixed in 10% neutral phosphate-buffered formaldehyde at room temperature for 72 hours, then decalcified for 5-6 hours in 10% EDTA in PBS. […] In brief, a 200 μm square grid was placed on each calvaria, and the number of osteoblasts and total bone area were determined with the Osteomeasure System (Osteometrics Inc., Atlanta, Ga.). All cells on the bone surface were counted as osteoblasts. […]

Row | Molecule | modulation of Ccdc80 (Ccdc80) | increase in total bone area (summary) (neonatal mouse calvaria)
1 | CN(CCOc1ccc(CC2SC(=O)NC2=O)cc1)c1ccccn1 (centres unmarked) [rosiglitazone] | modulate Ccdc80 | –
2 | B1 | – | 50-100%
